In paper PMC5655446:
No constants are given. Whether binding was seen depends on the method and setting.

The chains behind the UniProt entries cited, without tags or fusion partners. Residues count along the entry.
UniProt A5F5Y3, residues 18-334: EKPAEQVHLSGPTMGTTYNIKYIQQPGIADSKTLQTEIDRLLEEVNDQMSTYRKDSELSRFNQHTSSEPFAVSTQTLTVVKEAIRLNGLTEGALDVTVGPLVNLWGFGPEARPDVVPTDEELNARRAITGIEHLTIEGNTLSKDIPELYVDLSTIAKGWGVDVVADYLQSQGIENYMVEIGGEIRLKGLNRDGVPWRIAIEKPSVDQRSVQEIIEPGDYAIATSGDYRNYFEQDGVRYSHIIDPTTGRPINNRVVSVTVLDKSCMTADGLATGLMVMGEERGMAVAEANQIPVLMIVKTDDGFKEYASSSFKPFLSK

Molecular target: Vibrio cholerae ApbE (alternative pyrimidine biosynthesis protein), recombinant, without the leader sequence (Vibrio cholerae) (UniProt A5F5Y3)
Assay: SEC; each protein run alone on HiLoad 16/600 Superdex 200 pg; 150 mM NaCl, 10 mM HEPES, pH 8.0; both purified

Question: “Vibrio cholerae ApbE (alternative pyrimidine biosynthesis protein), recombinant, without the leader sequence (from UniProt A5F5Y3 18-334) (enzyme)” was tested. Which binding did it give?
Answer: no binding
